Experiment [1] addresses T1, biotin-labelled PDBAG1 (human (peptide identified in patients' adipose tissue)).
T1 sequence (peptide, biotin label (position not stated)): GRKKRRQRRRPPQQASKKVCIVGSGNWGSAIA
As to the kind of experiment: pull-down; biotin-PDBAG1 pull-down from cytoplasmic and nuclear protein extracts, followed by immunoblotting; only the target purified. (In general: In western blotting, separated proteins are transferred to a membrane and probed.)

Chains of the proteins cited; added tags and fusions are not shown. Residues count along the entry.
UniProt Q07021, residues 74-282: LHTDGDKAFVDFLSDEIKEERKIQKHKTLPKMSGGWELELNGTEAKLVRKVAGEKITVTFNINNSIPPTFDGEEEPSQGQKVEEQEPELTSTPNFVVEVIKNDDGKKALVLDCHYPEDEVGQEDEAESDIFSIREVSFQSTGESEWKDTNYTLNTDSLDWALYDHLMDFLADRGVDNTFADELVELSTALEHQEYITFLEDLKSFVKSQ

Experiment [2] shares this target. As to the kind of experiment: pull-down; biotin-labelled PDBAG1 on streptavidin magnetic beads, incubated overnight at 4°C with cell lysate in IP lysis buffer; captured proteins detected by western blot; only the target purified.
For experiment [3] the target is unchanged. As to the kind of experiment: pull-down; lysates of MDA-MB-231 cells transfected with C-terminally HA-tagged C1QBP truncations incubated with PDBAG1; only the target purified.
Experiment [4] deals with HA-tagged C1QBP (UniProt Q07021). As to the kind of experiment: co-IP; HA-tagged C1QBP used as bait; biotin-labelled PDBAG1 added to the protein lysate; only the binder purified.

These are yes or no findings as the source states them, for the method shown. Binding seen in cells or lysates may run through a third protein. Some entries that bind do so weakly or less than the wild type.

On to “C1QBP (endogenous) (from UniProt Q07021 74-282)”, for which the binding entry in experiment [1] and in experiment [2] was “binds” in each case.

On to “C1QBP truncation 74–282AA, HA at the C-terminus (from UniProt Q07021 74-282) (domain or fragment)”, for which the binding entry in experiment [3] was “binds”.

B1: biotin-labelled PDBAG1 (peptide)
peptide: T1 sequence (peptide, biotin label (position not stated))
modifications: biotin label (position not given)
In the case of B1, the binding result in experiment [4] is “binds”.

B2: DHX57 (endogenous) (protein, UniProt Q6P158 1-1386)
chain: MSSSVRRKGKPGKGGGKGSSRGGRGGRSHASKSHGSGGGGGGGGGGGGGNRKASSRIWDDGDDFCIFSESRRPSRPSNSNISKGESRPKWKPKAKVPLQTLHMTSENQEKVKALLRDLQEQDADAGSERGLSGEEEDDEPDCCNDERYWPAGQEPSLVPDLDPLEYAGLASVEPYVPEFTVSPFAVQKLSRYGFNTERCQAVLRMCDGDVGASLEHLLTQCFSETFGERMKISEAVNQISLDECMEQRQEEAFALKSICGEKFIERIQNRVWTIGLELEYLTSRFRKSKPKESTKNVQENSLEICKFYLKGNCKFGSKCRFKHEVPPNQIVGRIERSVDDSHLNAIEDASFLYELEIRFSKDHKYPYQAPLVAFYSTNENLPLACRLHISEFLYDKALTFAETSEPVVYSLITLLEEESEIVKLLTNTHHKYSDPPVNFLPVPSRTRINNPACHKTVIPNNSFVSNQIPEVEKASESEESDEDDGPAPVIVENESYVNLKKKISKRYDWQAKSVHAENGKICKQFRMKQASRQFQSILQERQSLPAWEERETILNLLRKHQVVVISGMTGCGKTTQIPQFILDDSLNGPPEKVANIICTQPRRISAISVAERVAKERAERVGLTVGYQIRLESVKSSATRLLYCTTGVLLRRLEGDTALQGVSHIIVDEVHERTEESDFLLLVLKDIVSQRPGLQVILMSATLNAELFSDYFNSCPVITIPGRTFPVDQFFLEDAIAVTRYVLQDGSPYMRSMKQISKEKLKARRNRTAFEEVEEDLRLSLHLQDQDSVKDAVPDQQLDFKQLLARYKGVSKSVIKTMSIMDFEKVNLELIEALLEWIVDGKHSYPPGAILVFLPGLAEIKMLYEQLQSNSLFNNRRSNRCVIHPLHSSLSSEEQQAVFVKPPAGVTKIIISTNIAETSITIDDVVYVIDSGKMKEKRYDASKGMESLEDTFVSQANALQRKGRAGRVASGVCFHLFTSHHYNHQLLKQQLPEIQRVPLEQLCLRIKILEMFSAHNLQSVFSRLIEPPHTDSLRASKIRLRDLGALTPDERLTPLGYHLASLPVDVRIGKLMLFGSIFRCLDPALTIAASLAFKSPFVSPWDKKEEANQKKLEFAFANSDYLALLQAYKGWQLSTKEGVRASYNYCRQNFLSGRVLQEMASLKRQFTELLSDIGFAREGLRAREIEKRAQGGDGVLDATGEEANSNAENPKLISAMLCAALYPNVVQVKSPEGKFQKTSTGAVRMQPKSAELKFVTKNDGYVHIHPSSVNYQVRHFDSPYLLYHEKIKTSRVFIRDCSMVSVYPLVLFGGGQVNVQLQRGEFVVSLDDGWIRFVAASHQVAELVKELRCELDQLLQDKIKNPSIDLCTCPRGSRIISTIVKLVTTQ
Consider B2, for which the binding entry in experiment [2] is reported as “binds”.

The record behind these values is article PMC11695203, “A new peptide inhibitor of C1QBP exhibits potent anti‐tumour activity against triple negative breast cancer by impairing mitochondrial function and suppressing homologous recombination repair” (Clinical and Translational Medicine, 2025).
